Reference: PubChem BioAssay AID445 (National Center for Advancing Translational Sciences (NCATS), 2006)
Some of the results follow. Further columns of the screen follow, without active or inactive calls. The list favours compounds with an active or inconclusive main result. Words in brackets tell the shape of the fitted curve; partial curves, single points and poor fits give uncertain potencies.

Assay: IkB Signaling
Conditions: ABC-DLBCL IkBa-CBG/CBR dual luciferase ratio (green luciferase fused to IkBa over red control in OCI-Ly3 lymphoma cells), 4 h
Summary of the method: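 Curves were fitted separately to fusion (green), unfused (red) and ratio luminescence, then classed by r2, magnitude and activity. Cells: OCI-Ly3, 4 h compound plus doxycycline at 37C; 10 uM MG-132 defined full response.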

[1] = measured here: control luc red channel unless noted
[2] = measured here: IkB-luc green channel
[3] = measured here: control luc red channel

**Q.** For `CCOC(=O)CN1C(=O)C(O)(CC(=O)c2cc(OC)ccc2OC)c2ccccc21` (stereo not drawn), which AC50 [1] is on record?
**A.** 0.251 µM [rising, full curve, poor fit]

**Q.** With `O=C(OC1CCCCC1)c1ccc(NC(=O)c2ccco2)cc1` as the molecule, how does the AC50 [1] read?
**A.** 12.6 µM [falling, partial curve]

**Q.** Which AC50 [1] does the source give for `CCn1c(SCC(=O)Nc2nc3ccccc3s2)nc2c(c1=O)SC(C)C2` (stereo not drawn) here?
**A.** 25.1 µM [falling, partial curve]

**Q.** Which AC50 [1] does the source give for `CCc1ccc2oc(-c3ccc(NC(=O)c4ccc(OC)c(Br)c4)cc3)nc2c1` here?
**A.** 0.631 µM [falling, full curve]

**Q.** With `O=C(NCCc1csc(-c2ccc(Cl)cc2)n1)c1cccs1` as the molecule, how does the AC50 [1] read?
**A.** 25.1 µM [falling, single point]

**Q.** With `CCc1ccccc1NC(=O)Cn1c(-c2nonc2N)nc2ccccc21` as the molecule, how does the AC50 [1] read?
**A.** 2.51 µM [falling, partial curve, poor fit]

**Q.** Which AC50 [1] does the source give for `COC(=O)c1c(NC(=O)CCCOc2ccc(C(C)(C)C)cc2)sc2c1CCC(C)C2` (stereo not drawn) here?
**A.** 31.6 µM [falling, single point]

**Q.** Which AC50 [1] does the source give for `O=S(=O)(Nc1ccc2oc3c(c2c1)CCCC3)c1cc(Cl)ccc1Cl` here?
**A.** 15.8 µM [falling, partial curve]

**Q.** For `CCN(C(=O)Cn1nc(Cc2cccnc2)c2ccccc2c1=O)c1ccccc1F`, which AC50 [1] is on record?
**A.** 0.158 µM [falling, full curve]

**Q.** With `COc1ccc(Cc2nnc(SCc3c(C)noc3C)n2C2CCCCC2)cc1OC` as the molecule, how does the AC50 [1] read?
**A.** 10 µM [falling, partial curve]

**Q.** With `Cc1cccc(NC(=O)C2CCN(c3nnc(-n4c(C)ccc4C)s3)CC2)c1C` as the molecule, how does the AC50 [1] read?
**A.** 39.8 µM [falling, single point]

**Q.** With `COc1ccc(C2Sc3ccccc3NC3=C2C(=O)c2ccccc23)c(OC)c1OC` (stereo not drawn) as the molecule, how does the AC50 [1] read?
**A.** 3.98 µM [rising, partial curve, poor fit]

**Q.** For `Cc1cc(C)n(-c2ccc(C(=O)OCC(=O)c3ccc(Br)s3)cc2)n1`, which AC50 [1] is on record?
**A.** 2 µM [falling, partial curve]

**Q.** For `Cc1ccc2nc(-c3cc(NC(=O)c4ccc5c(c4)OCCO5)ccc3Cl)oc2c1`, which AC50 [1] is on record?
**A.** 3.16 µM [falling, full curve]

**Q.** For `COc1ccc(-c2onc(C)c2C)cc1S(=O)(=O)N1c2ccccc2CC1C` (stereo not drawn), which AC50 [1] is on record?
**A.** 20 µM [falling, partial curve, poor fit]

**Q.** For `CC(=O)c1cc2c(cc1NC(=O)c1c(C)nn(-c3ccc(C)cc3)c1-n1cccc1)OCO2`, which AC50 [1] is on record?
**A.** 0.158 µM [rising, full curve, poor fit]

**Q.** With `COc1ccc(OCCn2cc(C(=O)C3CCCCC3)c3ccccc32)cc1` as the molecule, how does the AC50 [1] read?
**A.** 10 µM [falling, partial curve]

**Q.** Which AC50 [1] does the source give for `COc1cccc(N2CCN(C(=O)c3cnn(C(C)(C)C)c3C3CCN(C(=O)OC(C)(C)C)CC3)CC2)c1` here?
**A.** 39.8 µM [falling, single point]

**Q.** With `O=C(c1ccc2c(c1)CCN2S(=O)(=O)c1ccccc1)N1CCN(c2ccc(F)cc2)CC1` as the molecule, how does the AC50 [1] read?
**A.** 20 µM [falling, partial curve]

**Q.** With `CC(C)(C)c1ccc(OCc2nc(-c3ccccn3)no2)c(Br)c1` as the molecule, how does the AC50 [1] read?
**A.** 12.6 µM [falling, partial curve]

**Q.** Which AC50 [1] does the source give for `O=C(c1ccc2c3c(cccc13)CC2)N1CCN(c2ncccn2)CC1` here?
**A.** 10 µM [falling, partial curve]

**Q.** For `COc1ccc2c(c1)CCc1c(C(=O)Nc3c(C)nn(Cc4ccccc4Cl)c3C)noc1-2`, which AC50 [1] is on record?
**A.** 3.98 µM [falling, full curve]

**Q.** With `Cn1c(=O)c2c(nc(NCCc3ccccc3)n2Cc2cccc(Br)c2)n(C)c1=O` as the molecule, how does the AC50 [1] read?
**A.** 7.94 µM [falling, partial curve]

**Q.** With `CCCCN(CC)CCCNC(=O)c1cn(CC(C)C)c(=O)c2c1c1ccccc1n2C` as the molecule, how does the AC50 [1] read?
**A.** 25.1 µM [falling, partial curve]

**Q.** For `Cc1ccc(CCNC(=O)c2nnc(Cc3cccc(F)c3)o2)cc1`, which AC50 [1] is on record?
**A.** 39.8 µM [falling, single point]

**Q.** For `N#Cc1c(-c2ccccc2)no[n+]1[O-]`, which AC50 [2] is on record?
**A.** 15.8 µM [rising, full curve]

**Q.** And the AC50 [3]?
**A.** 15.8 µM [falling, partial curve]

**Q.** Which AC50 [1] does the source give for `Cc1[nH]c2ccc(F)cc2c1CCNC(=O)c1cc2cc(Cl)ccc2oc1=O` here?
**A.** 12.6 µM [falling, partial curve, poor fit]

**Q.** For `COc1ccc(S(=O)(=O)NCC(c2cccs2)S(=O)(=O)c2ccc(C)cc2)cc1F` (stereo not drawn), which AC50 [1] is on record?
**A.** 39.8 µM [falling, single point]

**Q.** For `Cc1cc(-c2ccc(N=Nc3ccc4c(S(=O)(=O)O)cc(S(=O)(=O)O)c(N)c4c3O)c(C)c2)ccc1N=Nc1ccc2c(S(=O)(=O)O)cc(S(=O)(=O)O)c(N)c2c1O`, which AC50 [1] is on record?
**A.** 39.8 µM [falling, single point]

**Q.** Which AC50 [1] does the source give for `COc1ccc(Cl)cc1NS(=O)(=O)c1c(C)nc2scc(C)n2c1=O` here?
**A.** 39.8 µM [falling, single point]

**Q.** For `CCn1c(CCC(=O)Nc2nc3c(s2)CCCC3)nc2cc(S(=O)(=O)N(C)C)ccc21`, which AC50 [1] is on record?
**A.** 3.16 µM [falling, full curve]

**Q.** For `Cc1ccc(CNC(=O)c2c[nH]c3ccc(S(=O)(=O)Nc4ccc(C(C)C)cc4)cc3c2=O)cc1`, which AC50 [1] is on record?
**A.** 3.16 µM [falling, full curve]

**Q.** With `O=C(NC1(C(F)(F)F)NC(=O)N(CCc2ccccc2)C1=O)c1ccccc1F` (stereo not drawn) as the molecule, how does the AC50 [1] read?
**A.** 39.8 µM [falling, partial curve]

**Q.** For `Cc1ccc(NC(=O)CCc2c(C)nn(-c3ccc(N4CCCCC4)nn3)c2C)cc1F`, which AC50 [1] is on record?
**A.** 12.6 µM [falling, partial curve]

**Q.** Which AC50 [1] does the source give for `O=C(Nc1cccc(-c2nnc(-c3ccccc3)o2)c1)C1CCCO1` (stereo not drawn) here?
**A.** 20 µM [falling, single point]

**Q.** With `CCOc1ccc2nc(N(Cc3cccnc3)C(=O)c3ccc4c(c3)OCCO4)sc2c1` as the molecule, how does the AC50 [1] read?
**A.** 31.6 µM [falling, partial curve]

**Q.** Which AC50 [1] does the source give for `COc1ccccc1CNC(=O)Cn1c(=O)ccc2cc(S(=O)(=O)N3CCC(C)CC3)ccc21` here?
**A.** 0.126 µM [falling, full curve, poor fit]

**Q.** For `COC(=O)c1c(C)oc2c1cc(NS(=O)(=O)c1c(C)cc(C)cc1C)c1ccccc12`, which AC50 [1] is on record?
**A.** 12.6 µM [falling, partial curve]

**Q.** Which AC50 [1] does the source give for `O=S(=O)(c1ccc(Cl)cc1)c1nc(-c2ccccc2Br)oc1N1CCOCC1` here?
**A.** 39.8 µM [falling, single point]

**Q.** With `COc1ccc(N2CCN(C(=O)Cn3cnc4sc(C)c(S(=O)(=O)N5CCC(C)CC5)c4c3=O)CC2)cc1` as the molecule, how does the AC50 [1] read?
**A.** 10 µM [falling, partial curve]

**Q.** For `CCOC(=O)c1ccc(N2C(=O)c3n[nH]c(C)c3C2c2ccc(O)c(OC)c2)cc1` (stereo not drawn), which AC50 [1] is on record?
**A.** 10 µM [falling, partial curve]

**Q.** For `c1c2c(cc3sc(N4CCCCC4)nc13)OCCO2`, which AC50 [1] is on record?
**A.** 3.16 µM [falling, partial curve]

**Q.** With `Cc1ccc(-n2ncc(C(=O)N3CCN(c4ccccn4)CC3)c2C2CCN(C(=O)OC(C)(C)C)CC2)cc1C` as the molecule, how does the AC50 [1] read?
**A.** 15.8 µM [falling, partial curve]

**Q.** For `COc1ccc(C(=O)Nc2onc3c2CCCC3)cc1`, which AC50 [1] is on record?
**A.** 39.8 µM [falling, single point]

**Q.** Which AC50 [1] does the source give for `O=C(CSc1c2c(nc3ccc(Cl)cc13)CCCC2)N1CCN(C(=O)c2ccco2)CC1` here?
**A.** 7.94 µM [falling, full curve, poor fit]

**Q.** Which AC50 [1] does the source give for `CCOC(=O)C1=C(C)NC(C)=C(C(=O)OC)[C@H]1c1cccc([N+](=O)[O-])c1` here?
**A.** 39.8 µM [falling, partial curve]

**Q.** Which AC50 [1] does the source give for `COc1ccc(C2=CC(c3ccc(N(C)C)cc3)n3nnnc3N2)cc1` (stereo not drawn) here?
**A.** 1 µM [rising, full curve]

**Q.** Which AC50 [1] does the source give for `COc1cc(=O)n(C)c2cc(N(C)C)ccc12` here?
**A.** 15.8 µM [rising, partial curve]

**Q.** With `CN(C)CCN1C(=O)C(O)=C(C(=O)c2cc3ccccc3o2)C1c1ccc(N(C)C)cc1` (stereo not drawn) as the molecule, how does the AC50 [1] read?
**A.** 10 µM [falling, partial curve]

**Q.** Which AC50 [1] does the source give for `COc1ccc2c(c1)c1c(c(=O)n(-c3cccc(Cl)c3)c(=O)n1C)n2C` here?
**A.** 1.26 µM [falling, full curve]

**Q.** For `Cc1cccc2sc(N(Cc3cccnc3)C(=O)C3CCCCC3)nc12`, which AC50 [1] is on record?
**A.** 15.8 µM [falling, partial curve]

**Q.** With `COc1ccc(CSc2nc3ccncc3n2Cc2nc(-c3ccc(OC)c(OC)c3)oc2C)cc1` as the molecule, how does the AC50 [1] read?
**A.** 12.6 µM [falling, partial curve]

**Q.** For `Cc1cccc(Cn2nnc3c(=O)[nH]c(C4CCN(C(=O)c5ccccc5F)CC4)nc32)c1`, which AC50 [1] is on record?
**A.** 3.98 µM [rising, single point]

**Q.** With `CCOC(=O)c1c(-c2ccccc2)oc2ccc(NS(=O)(=O)c3ccccc3)cc12` as the molecule, how does the AC50 [1] read?
**A.** 31.6 µM [falling, partial curve]

**Q.** Which AC50 [1] does the source give for `COc1ccc(S(=O)(=O)NCc2cccn2Cc2cccc(C)c2)cc1OC` here?
**A.** 39.8 µM [falling, single point]

**Q.** With `Cc1ccc(O)c(Sc2cc(C)ccc2O)c1` as the molecule, how does the AC50 [1] read?
**A.** 6.31 µM [falling, partial curve]

**Q.** With `O=C(c1c(Cl)nc2sccn12)N1CCN(c2cccc(Cl)c2)CC1` as the molecule, how does the AC50 [1] read?
**A.** 39.8 µM [falling, single point]

**Q.** With `Cc1sc2ncnc(Sc3nnnn3-c3ccc(Cl)cc3)c2c1C` as the molecule, how does the AC50 [2] read?
**A.** 39.8 µM [rising, single point]

**Q.** And the AC50 [3]?
**A.** 15.8 µM [falling, partial curve]

**Q.** For `CC(=O)c1ccc(NC(=O)CSc2nc(-c3ccccc3F)nc3c2c(=O)n(C)c(=O)n3C)cc1`, which AC50 [1] is on record?
**A.** 31.6 µM [rising, single point] [measured here: IkB-luc green channel]

**Q.** For `Cc1ccc(N(C)S(=O)(=O)c2ccc3[nH]cc(C(=O)O)c(=O)c3c2)cc1C`, which AC50 [1] is on record?
**A.** 20 µM [falling, single point]

**Q.** With `Cc1ccc(C(=O)Nc2ccc3c(c2)N(C)C(=O)c2ccccc2S3)cc1F` as the molecule, how does the AC50 [1] read?
**A.** 25.1 µM [falling, partial curve, poor fit]
